No constants are given. Whether binding was seen depends on the method and setting. Binding seen in cells or lysates may run through a third protein. Some entries that bind do so weakly or less than the wild type.

Protein sequences, listed by entry. Tags and fused reporters are not part of them.
UniProt O75925: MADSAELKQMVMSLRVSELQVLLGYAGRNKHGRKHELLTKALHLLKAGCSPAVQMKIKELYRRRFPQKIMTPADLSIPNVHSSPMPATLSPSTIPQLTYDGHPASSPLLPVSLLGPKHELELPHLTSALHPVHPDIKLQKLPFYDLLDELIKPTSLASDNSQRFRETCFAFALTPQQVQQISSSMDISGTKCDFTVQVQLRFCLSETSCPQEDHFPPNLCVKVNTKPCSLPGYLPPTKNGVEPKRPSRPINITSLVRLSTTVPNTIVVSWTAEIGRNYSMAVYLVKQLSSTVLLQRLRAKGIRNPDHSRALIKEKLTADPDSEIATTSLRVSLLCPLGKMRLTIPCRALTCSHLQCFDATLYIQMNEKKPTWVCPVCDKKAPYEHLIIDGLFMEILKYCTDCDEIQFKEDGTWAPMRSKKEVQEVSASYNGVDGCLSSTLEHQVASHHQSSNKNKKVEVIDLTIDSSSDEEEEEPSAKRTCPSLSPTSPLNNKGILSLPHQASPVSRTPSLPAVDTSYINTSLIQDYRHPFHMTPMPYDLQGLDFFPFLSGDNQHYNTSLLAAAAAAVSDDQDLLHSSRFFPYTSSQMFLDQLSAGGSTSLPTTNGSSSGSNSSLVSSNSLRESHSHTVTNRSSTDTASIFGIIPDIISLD

In the experiment the target is protein inhibitor of activated STAT1 (PIAS1), endogenous (human (endogenous in HEK293T)) (UniProt O75925). Briefly: co-IP; HEK293T cell lysate without any plasmid transfection, immunoprecipitated with anti-PIAS1 antibody, immunoblotted with anti-Hes-1 and anti-PIAS1. (In western blotting, separated proteins are transferred to a membrane and probed.)

B1: Hairy and Enhancer of split 1 (Hes-1), endogenous (protein, UniProt Q14469 1-280)
chain: MPADIMEKNSSSPVAATPASVNTTPDKPKTASEHRKSSKPIMEKRRRARINESLSQLKTLILDALKKDSSRHSKLEKADILEMTVKHLRNLQRAQMTAALSTDPSVLGKYRAGFSECMNEVTRFLSTCEGVNTEVRTRLLGHLANCMTQINAMTYPGQPHPALQAPPPPPPGPGGPQHAPFAPPPPLVPIPGGAAPPPGGAPCKLGSQAGEAAKVFGGFQVVPAPDGQFAFLIPNGAFAHSGPVIPVYTSNSGTSVGPNAVSPSSGPSLTADSMWRPWRN
As to B1, the binding entry is reported as “binds”.

The record behind these values is paper PMC4071220.
